The target of the test is TUD1-cLUC (rice). Kind of test: split reporter.

The source of these data is article doi:10.1101/2020.08.24.264556.

No constants are given. Whether binding was seen depends on the method and setting. In cells and extracts the contact can be indirect. Binding can be weak; no strength is given. Where a sequence is shown, tags or fusion partners need not be part of it.

B1: IDR1-nLUC (protein, UniProt Q0DJ33 1-380)
chain: MGSSCSRSHSLSEAETTKNAKSADIDRRILQETKAEQHIHKLLLLGAGESGKSTIFKQIKLLFQTGFDEAELRSYTSVIHANVYQTIKILYEGAKELSQVESDSSKYVISPDNQEIGEKLSDIDGRLDYPLLNKELVLDVKRLWQDPAIQETYLRGSILQLPDCAQYFMENLDRLAEAGYVPTKEDVLYARVRTNGVVQIQFSPVGENKRGGEVYRLYDVGGQRNERRKWIHLFEGVNAVIFCAAISEYDQMLFEDETKNRMMETKELFDWVLKQRCFEKTSFILFLNKFDIFEKKIQKVPLSVCEWFKDYQPIAPGKQEVEHAYEFVKKKFEELYFQSSKPDRVDRVFKIYRTTALDQKLVKKTFKLIDESMRRSREGT
Consider B1, for which the binding entry was “binds”.
